The text below walks through data of publication PMC8466577.

The chains behind the UniProt entries cited, without tags or fusion partners.
UniProt P09429: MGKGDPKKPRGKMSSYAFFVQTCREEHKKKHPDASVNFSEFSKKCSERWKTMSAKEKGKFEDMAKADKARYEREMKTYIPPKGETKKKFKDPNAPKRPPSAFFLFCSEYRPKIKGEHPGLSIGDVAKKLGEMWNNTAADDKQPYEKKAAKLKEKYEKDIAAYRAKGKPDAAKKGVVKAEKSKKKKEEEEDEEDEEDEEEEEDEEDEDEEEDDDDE

In experiment [1] the target is T1, THOC5 (human (endogenous in SKOV-3 and PC-3)) (UniProt Q13769).
T1 sequence: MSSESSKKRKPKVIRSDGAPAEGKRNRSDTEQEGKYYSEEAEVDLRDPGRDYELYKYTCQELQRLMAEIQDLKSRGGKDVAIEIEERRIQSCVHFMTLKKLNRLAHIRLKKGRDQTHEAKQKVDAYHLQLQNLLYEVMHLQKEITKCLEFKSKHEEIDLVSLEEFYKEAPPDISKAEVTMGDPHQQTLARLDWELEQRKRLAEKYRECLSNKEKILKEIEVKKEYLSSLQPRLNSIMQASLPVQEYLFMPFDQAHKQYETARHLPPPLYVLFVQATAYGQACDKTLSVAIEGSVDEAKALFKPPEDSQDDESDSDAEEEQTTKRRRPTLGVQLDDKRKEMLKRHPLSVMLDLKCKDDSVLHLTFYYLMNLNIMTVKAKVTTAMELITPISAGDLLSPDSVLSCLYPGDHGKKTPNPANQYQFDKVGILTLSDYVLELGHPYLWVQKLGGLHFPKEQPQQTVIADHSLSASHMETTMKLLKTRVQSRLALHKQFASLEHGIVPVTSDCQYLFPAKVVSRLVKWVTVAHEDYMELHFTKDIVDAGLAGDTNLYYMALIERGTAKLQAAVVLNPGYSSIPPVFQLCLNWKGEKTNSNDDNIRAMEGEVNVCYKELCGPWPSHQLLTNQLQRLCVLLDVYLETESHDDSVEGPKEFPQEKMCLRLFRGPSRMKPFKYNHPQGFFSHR
The experiment is described as follows: affinity purification with mass spectrometry; anti-THOC5 (Abcam ab86070) crosslinked to Protein G-Dynal beads; PC-3 lysate, Benzonase-treated; 4 h at 4 °C; IgG control; SAINT score cut-off 0.7.

Experiment [2] deals with HMGB1 (human (endogenous in SKOV-3 and PC-3)) (UniProt P09429). The experiment is described as follows: affinity purification with mass spectrometry; anti-HMGB1 (Abcam ab18256) crosslinked to Protein G-Dynal beads; SKOV-3 and PC-3 whole-cell lysates (three IPs each) and nuclear and cytoplasmic fractions (one each), Benzonase-treated; 4 h at 4 °C; washes with 150 mM NaCl, 0.1% NP-40; IgG control; SAINT score cut-off 0.7.

No constants are given. Whether binding was seen depends on the method and setting. Binding seen in cells or lysates may run through a third protein. Here binding means that the protein was enriched with, or labelled near, the bait; the list need not be complete.

For RAB11 (human (endogenous in PC-3)), in experiment [1], the binding result was “binds”.

B1: THOC3 (protein, UniProt Q96J01 1-351)
chain: MAVPAAAMGPSALGQSGPGSMAPWCSVSSGPSRYVLGMQELFRGHSKTREFLAHSAKVHSVAWSCDGRRLASGSFDKTASVFLLEKDRLVKENNYRGHGDSVDQLCWHPSNPDLFVTASGDKTIRIWDVRTTKCIATVNTKGENINICWSPDGQTIAVGNKDDVVTFIDAKTHRSKAEEQFKFEVNEISWNNDNNMFFLTNGNGCINILSYPELKPVQSINAHPSNCICIKFDPMGKYFATGSADALVSLWDVDELVCVRCFSRLDWPVRTLSFSHDGKMLASASEDHFIDIAEVETGDKLWEVQCESPTFTVAWHPKRPLLAFACDDKDGKYDSSREAGTVKLFGLPNDS
In the case of B1, the binding entry in experiment [1] is “binds”.

B2: RRS1 (protein, UniProt Q15050 1-365)
chain: MEGQSVEELLAKAEQDEAEKLQRITVHKELELQFDLGNLLASDRNPPTGLRCAGPTPEAELQALARDNTQLLINQLWQLPTERVEEAIVARLPEPTTRLPREKPLPRPRPLTRWQQFARLKGIRPKKKTNLVWDEVSGQWRRRWGYQRARDDTKEWLIEVPGNADPLEDQFAKRIQAKKERVAKNELNRLRNLARAHKMQLPSAAGLHPTGHQSKEELGRAMQVAKVSTASVGRFQERLPKEKVPRGSGKKRKFQPLFGDFAAEKKNQLELLRVMNSKKPQLDVTRATNKQMREEDQEEAAKRRKMSQKGKRKGGRQGPGGKRKGGPPSQGGKRKGGLGGKMNSGPPGLGGKRKGGQRPGGKRRK
For B2, in experiment [2], the binding entry is given as “binds”.

B3: SEPT10 (protein, UniProt Q9P0V9 1-454)
chain: MASSEVARHLLFQSHMATKTTCMSSQGSDDEQIKRENIRSLTMSGHVGFESLPDQLVNRSIQQGFCFNILCVGETGIGKSTLIDTLFNTNFEDYESSHFCPNVKLKAQTYELQESNVQLKLTIVNTVGFGDQINKEESYQPIVDYIDAQFEAYLQEELKIKRSLFTYHDSRIHVCLYFISPTGHSLKTLDLLTMKNLDSKVNIIPVIAKADTVSKTELQKFKIKLMSELVSNGVQIYQFPTDDDTIAKVNAAMNGQLPFAVVGSMDEVKVGNKMVKARQYPWGVVQVENENHCDFVKLREMLICTNMEDLREQTHTRHYELYRRCKLEEMGFTDVGPENKPVSVQETYEAKRHEFHGERQRKEEEMKQMFVQRVKEKEAILKEAERELQAKFEHLKRLHQEERMKLEEKRRLLEEEIIAFSKKKATSEIFHSQSFLATGSNLRKDKDRKNSNFL
On to B3, for which the binding entry in experiment [2] is on record as “binds”.

B4: ZNF512B (protein, UniProt Q96KM6 1-892)
chain: MTDPFCVGGRRLPGSSKSGPGKDGSRKEVRLPMLHDPPKMGMPVVRGGQTVPGQAPLCFDPGSPASDKTEGKKKGRPKAENQALRDIPLSLMNDWKDEFKAHSRVKCPNSGCWLEFPSIYGLKYHYQRCQGGAISDRLAFPCPFCEAAFTSKTQLEKHRIWNHMDRPLPASKPGPISRPVTISRPVGVSKPIGVSKPVTIGKPVGVSKPIGISKPVSVGRPMPVTKAIPVTRPVPVTKPVTVSRPMPVTKAMPVTKPITVTKSVPVTKPVPVTKPITVTKLVTVTKPVPVTKPVTVSRPIVVSKPVTVSRPIAISRHTPPCKMVLLTRSENKAPRATGRNSGKKRAADSLDTCPIPPKQARPENGEYGPSSMGQSSAFQLSADTSSGSLSPGSRPSGGMEALKAAGPASPPEEDPERTKHRRKQKTPKKFTGEQPSISGTFGLKGLVKAEDKARVHRSKKQEGPGPEDARKKVPAAPITVSKEAPAPVAHPAPGGPEEQWQRAIHERGEAVCPTCNVVTRKTLVGLKKHMEVCQKLQDALKCQHCRKQFKSKAGLNYHTMAEHSAKPSDAEASEGGEQEERERLRKVLKQMGRLRCPQEGCGAAFSSLMGYQYHQRRCGKPPCEVDSPSFPCTHCGKTYRSKAGHDYHVRSEHTAPPPEEPTDKSPEAEDPLGVERTPSGRVRRTSAQVAVFHLQEIAEDELARDWTKRRMKDDLVPETARLNYTRPGLPTLNPQLLEAWKNEVKEKGHVNCPNDCCEAIYSSVSGLKAHLASCSKGAHLAGKYRCLLCPKEFSSESGVKYHILKTHAENWFRTSADPPPKHRSQDSLVPKKEKKKNLAGGKKRGRKPKERTPEEPVAKLPPRRDDWPPGCRDKGARGSTGRKVGVSKAPEK
Regarding B4, the binding result in experiment [2] is reported as “binds”.

B5: THOC7 (protein, UniProt Q6I9Y2 1-204)
chain: MGAVTDDEVIRKRLLIDGDGAGDDRRINLLVKSFIKWCNSGSQEEGYSQYQRMLSTLSQCEFSMGKTLLVYDMNLREMENYEKIYKEIECSIAGAHEKIAECKKQILQAKRIRKNRQEYDALAKVIQHHPDRHETLKELEALGKELEHLSHIKESVEDKLELRRKQFHVLLSTIHELQQTLENDEKLSEVEEAQEASMETDPKP
Take B5: the binding entry in experiment [1] is “binds”.

B6: SEPT8 (protein, UniProt Q92599 1-483)
chain: MAATDLERFSNAEPEPRSLSLGGHVGFDSLPDQLVSKSVTQGFSFNILCVGETGIGKSTLMNTLFNTTFETEEASHHEACVRLRPQTYDLQESNVQLKLTIVDAVGFGDQINKDESYRPIVDYIDAQFENYLQEELKIRRSLFDYHDTRIHVCLYFITPTGHSLKSLDLVTMKKLDSKVNIIPIIAKADTISKSELHKFKIKIMGELVSNGVQIYQFPTDDEAVAEINAVMNAHLPFAVVGSTEEVKVGNKLVRARQYPWGVVQVENENHCDFVKLREMLIRVNMEDLREQTHSRHYELYRRCKLEEMGFQDSDGDSQPFSLQETYEAKRKEFLSELQRKEEEMRQMFVNKVKETELELKEKERELHEKFEHLKRVHQEEKRKVEEKRRELEEETNAFNRRKAAVEALQSQALHATSQQPLRKDKDKKNRSDIGAHQPGMSLSSSKVMMTKASVEPLNCSSWWPAIQCCSCLVRDATWREGFL
As for B6, the binding result in experiment [2] was “binds”.

B7: SEPT6 (protein, UniProt Q14141 1-434)
chain: MAATDIARQVGEGCRTVPLAGHVGFDSLPDQLVNKSVSQGFCFNILCVGETGLGKSTLMDTLFNTKFEGEPATHTQPGVQLQSNTYDLQESNVRLKLTIVSTVGFGDQINKEDSYKPIVEFIDAQFEAYLQEELKIRRVLHTYHDSRIHVCLYFIAPTGHSLKSLDLVTMKKLDSKVNIIPIIAKADAISKSELTKFKIKITSELVSNGVQIYQFPTDDESVAEINGTMNAHLPFAVIGSTEELKIGNKMMRARQYPWGTVQVENEAHCDFVKLREMLIRVNMEDLREQTHTRHYELYRRCKLEEMGFKDTDPDSKPFSLQETYEAKRNEFLGELQKKEEEMRQMFVQRVKEKEAELKEAEKELHEKFDRLKKLHQDEKKKLEDKKKSLDDEVNAFKQRKTAAELLQSQGSQAGGSQTLKRDKEKKNNPWLCTE
In the case of B7, in experiment [2], the binding entry was “binds”.

B8: SEPT7 (protein, UniProt Q16181 1-437)
chain: MSVSARSAAAEERSVNSSTMVAQQKNLEGYVGFANLPNQVYRKSVKRGFEFTLMVVGESGLGKSTLINSLFLTDLYSPEYPGPSHRIKKTVQVEQSKVLIKEGGVQLLLTIVDTPGFGDAVDNSNCWQPVIDYIDSKFEDYLNAESRVNRRQMPDNRVQCCLYFIAPSGHGLKPLDIEFMKRLHEKVNIIPLIAKADTLTPEECQQFKKQIMKEIQEHKIKIYEFPETDDEEENKLVKKIKDRLPLAVVGSNTIIEVNGKRVRGRQYPWGVAEVENGEHCDFTILRNMLIRTHMQDLKDVTNNVHYENYRSRKLAAVTYNGVDNNKNKGQLTKSPLAQMEEERREHVAKMKKMEMEMEQVFEMKVKEKVQKLKDSEAELQRRHEQMKKNLEAQHKELEEKRRQFEDEKANWEAQQRILEQQNSSRTLEKNKKKGKIF
Take B8: the binding entry in experiment [2] and in experiment [1] was “binds” throughout.
